Chains of the proteins cited; added tags and fusions are not shown. Lines headed by an entry give the natural chain unless they say otherwise; changes in a name come on top.
UniProt Q15785: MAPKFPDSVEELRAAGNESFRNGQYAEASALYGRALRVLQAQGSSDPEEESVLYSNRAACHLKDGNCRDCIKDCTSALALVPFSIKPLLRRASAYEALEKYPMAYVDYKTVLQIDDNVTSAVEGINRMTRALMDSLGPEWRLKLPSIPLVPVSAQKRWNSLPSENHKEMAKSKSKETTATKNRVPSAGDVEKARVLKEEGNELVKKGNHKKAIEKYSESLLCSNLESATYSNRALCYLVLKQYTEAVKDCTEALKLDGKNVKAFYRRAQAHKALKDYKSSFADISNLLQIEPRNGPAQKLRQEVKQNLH
UniProt Q15643: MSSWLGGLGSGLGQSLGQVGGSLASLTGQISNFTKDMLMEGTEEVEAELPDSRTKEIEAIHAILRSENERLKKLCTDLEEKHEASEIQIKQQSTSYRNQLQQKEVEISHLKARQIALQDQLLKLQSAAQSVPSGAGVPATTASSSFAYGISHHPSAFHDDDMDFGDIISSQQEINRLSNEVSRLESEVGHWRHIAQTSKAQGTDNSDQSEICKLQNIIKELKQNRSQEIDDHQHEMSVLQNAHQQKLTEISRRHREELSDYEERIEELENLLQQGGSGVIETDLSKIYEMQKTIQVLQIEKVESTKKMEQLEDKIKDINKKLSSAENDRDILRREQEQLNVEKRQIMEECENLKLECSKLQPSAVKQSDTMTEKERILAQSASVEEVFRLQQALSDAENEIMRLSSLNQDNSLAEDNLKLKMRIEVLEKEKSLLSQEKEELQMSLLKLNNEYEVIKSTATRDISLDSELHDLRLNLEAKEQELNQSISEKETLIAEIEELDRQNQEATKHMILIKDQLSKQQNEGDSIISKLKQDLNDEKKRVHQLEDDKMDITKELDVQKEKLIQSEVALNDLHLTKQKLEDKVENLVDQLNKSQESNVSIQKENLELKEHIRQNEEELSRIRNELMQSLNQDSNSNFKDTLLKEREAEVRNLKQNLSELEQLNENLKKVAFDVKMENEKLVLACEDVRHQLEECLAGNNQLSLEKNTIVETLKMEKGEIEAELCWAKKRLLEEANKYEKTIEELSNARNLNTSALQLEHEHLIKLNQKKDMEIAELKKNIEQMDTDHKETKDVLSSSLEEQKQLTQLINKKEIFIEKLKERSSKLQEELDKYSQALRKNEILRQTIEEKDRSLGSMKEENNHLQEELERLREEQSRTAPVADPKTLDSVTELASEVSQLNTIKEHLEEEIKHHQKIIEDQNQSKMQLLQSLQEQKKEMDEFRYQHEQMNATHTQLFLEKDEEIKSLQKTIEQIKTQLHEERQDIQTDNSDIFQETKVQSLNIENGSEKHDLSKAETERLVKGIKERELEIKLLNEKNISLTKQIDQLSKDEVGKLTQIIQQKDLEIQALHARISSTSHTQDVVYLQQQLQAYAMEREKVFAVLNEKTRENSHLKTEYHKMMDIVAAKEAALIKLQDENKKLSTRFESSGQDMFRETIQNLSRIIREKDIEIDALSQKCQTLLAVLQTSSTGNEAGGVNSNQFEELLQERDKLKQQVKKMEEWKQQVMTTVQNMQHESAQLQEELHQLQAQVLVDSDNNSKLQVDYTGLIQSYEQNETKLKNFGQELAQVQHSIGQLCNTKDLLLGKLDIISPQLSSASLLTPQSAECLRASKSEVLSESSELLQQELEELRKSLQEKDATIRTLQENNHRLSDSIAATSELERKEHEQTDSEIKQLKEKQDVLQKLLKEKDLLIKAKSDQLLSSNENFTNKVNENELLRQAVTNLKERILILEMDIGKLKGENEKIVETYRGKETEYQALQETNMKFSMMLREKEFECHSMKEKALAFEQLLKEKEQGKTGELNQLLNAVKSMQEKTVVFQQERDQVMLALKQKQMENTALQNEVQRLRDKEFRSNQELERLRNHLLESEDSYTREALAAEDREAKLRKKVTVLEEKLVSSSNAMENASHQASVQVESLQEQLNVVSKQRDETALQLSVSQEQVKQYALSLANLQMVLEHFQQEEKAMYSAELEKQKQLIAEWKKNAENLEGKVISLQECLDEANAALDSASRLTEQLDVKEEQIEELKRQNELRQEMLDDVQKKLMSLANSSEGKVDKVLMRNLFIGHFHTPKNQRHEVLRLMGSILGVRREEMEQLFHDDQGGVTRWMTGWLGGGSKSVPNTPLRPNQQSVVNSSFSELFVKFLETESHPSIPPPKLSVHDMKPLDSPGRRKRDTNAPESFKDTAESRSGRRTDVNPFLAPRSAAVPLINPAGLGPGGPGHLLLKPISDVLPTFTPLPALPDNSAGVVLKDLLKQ
UniProt Q9BSV6: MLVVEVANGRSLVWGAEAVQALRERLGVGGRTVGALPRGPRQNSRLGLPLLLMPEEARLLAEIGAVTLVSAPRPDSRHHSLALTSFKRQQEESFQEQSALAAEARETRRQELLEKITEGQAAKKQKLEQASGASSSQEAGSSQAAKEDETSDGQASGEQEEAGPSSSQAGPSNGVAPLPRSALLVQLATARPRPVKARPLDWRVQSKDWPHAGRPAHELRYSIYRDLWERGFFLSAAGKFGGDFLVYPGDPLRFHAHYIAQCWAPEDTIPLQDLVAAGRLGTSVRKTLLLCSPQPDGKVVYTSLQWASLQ
UniProt O43715: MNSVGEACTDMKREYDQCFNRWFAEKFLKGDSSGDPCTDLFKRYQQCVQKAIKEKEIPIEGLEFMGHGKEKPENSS
UniProt O94826, whole entry, looked up: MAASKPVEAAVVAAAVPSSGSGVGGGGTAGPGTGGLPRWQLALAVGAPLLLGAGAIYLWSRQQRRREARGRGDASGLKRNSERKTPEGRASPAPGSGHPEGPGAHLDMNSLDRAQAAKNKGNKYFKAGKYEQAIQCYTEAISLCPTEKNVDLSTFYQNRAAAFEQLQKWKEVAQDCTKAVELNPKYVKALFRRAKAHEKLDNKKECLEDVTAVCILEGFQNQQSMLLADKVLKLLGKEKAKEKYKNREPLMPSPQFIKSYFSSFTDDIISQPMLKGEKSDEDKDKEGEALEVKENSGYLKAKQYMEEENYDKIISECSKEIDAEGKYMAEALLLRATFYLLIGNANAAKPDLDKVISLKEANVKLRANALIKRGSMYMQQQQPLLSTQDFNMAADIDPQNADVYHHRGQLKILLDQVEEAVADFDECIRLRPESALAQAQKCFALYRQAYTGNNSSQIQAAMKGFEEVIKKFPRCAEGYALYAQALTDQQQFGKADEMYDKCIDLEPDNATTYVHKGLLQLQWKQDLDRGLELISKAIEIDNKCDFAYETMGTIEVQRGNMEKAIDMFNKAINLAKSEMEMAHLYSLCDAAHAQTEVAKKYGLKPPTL
UniProt Q9NXH8: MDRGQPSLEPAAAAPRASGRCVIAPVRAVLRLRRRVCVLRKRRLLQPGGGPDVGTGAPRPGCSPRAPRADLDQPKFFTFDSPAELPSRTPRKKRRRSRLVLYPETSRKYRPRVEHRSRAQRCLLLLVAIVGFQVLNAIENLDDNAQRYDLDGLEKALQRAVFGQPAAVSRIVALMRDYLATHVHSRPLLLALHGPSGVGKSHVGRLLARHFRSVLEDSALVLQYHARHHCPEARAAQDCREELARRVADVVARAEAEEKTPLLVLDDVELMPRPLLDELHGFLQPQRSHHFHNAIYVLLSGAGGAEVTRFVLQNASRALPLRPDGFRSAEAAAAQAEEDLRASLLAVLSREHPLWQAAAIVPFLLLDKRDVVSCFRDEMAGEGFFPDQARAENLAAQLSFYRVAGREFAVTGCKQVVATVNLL
UniProt P11387: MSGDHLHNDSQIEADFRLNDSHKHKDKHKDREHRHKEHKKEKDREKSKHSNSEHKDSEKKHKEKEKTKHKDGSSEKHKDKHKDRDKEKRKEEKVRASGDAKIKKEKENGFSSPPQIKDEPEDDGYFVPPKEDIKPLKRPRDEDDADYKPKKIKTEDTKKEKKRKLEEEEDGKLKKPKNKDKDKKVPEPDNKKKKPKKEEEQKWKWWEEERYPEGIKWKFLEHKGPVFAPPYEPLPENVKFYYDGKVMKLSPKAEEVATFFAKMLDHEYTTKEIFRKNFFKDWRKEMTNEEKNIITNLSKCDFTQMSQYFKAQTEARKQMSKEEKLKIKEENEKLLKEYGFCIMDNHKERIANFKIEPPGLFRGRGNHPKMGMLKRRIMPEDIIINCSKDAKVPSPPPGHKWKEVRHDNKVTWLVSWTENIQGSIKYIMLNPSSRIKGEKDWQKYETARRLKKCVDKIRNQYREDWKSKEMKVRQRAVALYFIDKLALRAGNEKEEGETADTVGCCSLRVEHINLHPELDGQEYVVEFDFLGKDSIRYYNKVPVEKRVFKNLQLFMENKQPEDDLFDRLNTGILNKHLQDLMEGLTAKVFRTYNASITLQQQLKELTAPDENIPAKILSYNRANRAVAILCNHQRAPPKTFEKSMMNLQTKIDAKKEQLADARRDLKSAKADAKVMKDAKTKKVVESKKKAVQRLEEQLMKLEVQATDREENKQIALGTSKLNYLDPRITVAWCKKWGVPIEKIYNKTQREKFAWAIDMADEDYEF
UniProt O95985: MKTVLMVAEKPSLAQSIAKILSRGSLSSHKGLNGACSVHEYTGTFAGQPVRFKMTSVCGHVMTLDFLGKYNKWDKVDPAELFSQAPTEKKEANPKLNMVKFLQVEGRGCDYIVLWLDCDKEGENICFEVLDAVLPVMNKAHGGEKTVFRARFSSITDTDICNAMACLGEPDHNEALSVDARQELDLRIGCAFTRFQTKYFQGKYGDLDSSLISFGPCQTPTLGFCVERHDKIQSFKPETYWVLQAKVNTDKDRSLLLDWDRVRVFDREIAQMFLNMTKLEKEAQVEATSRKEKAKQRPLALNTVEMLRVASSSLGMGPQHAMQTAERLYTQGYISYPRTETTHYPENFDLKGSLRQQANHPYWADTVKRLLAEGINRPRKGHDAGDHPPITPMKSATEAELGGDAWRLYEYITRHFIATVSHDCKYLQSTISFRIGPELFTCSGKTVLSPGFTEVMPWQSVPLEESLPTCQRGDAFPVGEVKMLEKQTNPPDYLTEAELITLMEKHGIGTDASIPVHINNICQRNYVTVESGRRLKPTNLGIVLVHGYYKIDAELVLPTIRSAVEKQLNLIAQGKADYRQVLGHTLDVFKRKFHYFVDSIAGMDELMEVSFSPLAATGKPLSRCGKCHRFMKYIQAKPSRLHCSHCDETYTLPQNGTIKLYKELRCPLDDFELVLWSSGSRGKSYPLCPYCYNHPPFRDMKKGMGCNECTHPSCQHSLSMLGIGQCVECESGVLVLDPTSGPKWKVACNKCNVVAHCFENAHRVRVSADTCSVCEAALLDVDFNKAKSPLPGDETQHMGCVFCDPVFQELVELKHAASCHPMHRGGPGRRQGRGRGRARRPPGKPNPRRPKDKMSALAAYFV
UniProt P13693: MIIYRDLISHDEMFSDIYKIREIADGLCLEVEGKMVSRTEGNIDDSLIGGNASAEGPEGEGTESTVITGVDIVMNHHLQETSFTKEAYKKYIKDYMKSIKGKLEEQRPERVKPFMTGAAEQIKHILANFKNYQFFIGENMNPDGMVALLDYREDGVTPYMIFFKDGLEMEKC
UniProt Q9H497: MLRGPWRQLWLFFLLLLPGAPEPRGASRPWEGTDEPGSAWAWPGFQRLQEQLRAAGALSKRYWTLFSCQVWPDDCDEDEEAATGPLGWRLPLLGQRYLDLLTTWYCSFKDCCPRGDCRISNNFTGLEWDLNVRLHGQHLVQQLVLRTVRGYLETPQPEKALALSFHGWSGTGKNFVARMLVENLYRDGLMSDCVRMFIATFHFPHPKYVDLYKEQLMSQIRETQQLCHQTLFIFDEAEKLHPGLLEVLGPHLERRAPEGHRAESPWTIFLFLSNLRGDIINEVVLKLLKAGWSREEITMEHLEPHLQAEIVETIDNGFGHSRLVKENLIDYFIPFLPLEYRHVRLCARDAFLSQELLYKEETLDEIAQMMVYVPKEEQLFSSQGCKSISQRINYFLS
UniProt Q9Y3Q8: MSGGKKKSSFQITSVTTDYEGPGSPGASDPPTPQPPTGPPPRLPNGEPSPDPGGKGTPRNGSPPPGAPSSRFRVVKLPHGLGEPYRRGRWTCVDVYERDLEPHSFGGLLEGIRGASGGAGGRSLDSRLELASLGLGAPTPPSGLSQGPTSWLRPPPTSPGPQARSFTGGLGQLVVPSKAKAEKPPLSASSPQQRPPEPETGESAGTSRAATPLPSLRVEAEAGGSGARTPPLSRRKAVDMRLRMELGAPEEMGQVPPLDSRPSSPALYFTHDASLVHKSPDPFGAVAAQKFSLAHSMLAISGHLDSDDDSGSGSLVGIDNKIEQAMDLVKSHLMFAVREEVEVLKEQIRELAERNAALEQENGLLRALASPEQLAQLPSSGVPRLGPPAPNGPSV
UniProt Q8WW01: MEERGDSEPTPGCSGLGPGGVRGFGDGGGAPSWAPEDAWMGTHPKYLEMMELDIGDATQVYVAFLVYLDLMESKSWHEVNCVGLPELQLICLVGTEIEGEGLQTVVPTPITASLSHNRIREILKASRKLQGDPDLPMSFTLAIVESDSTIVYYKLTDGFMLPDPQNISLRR

The other results are listed elsewhere or left out. Residues, ends and D or L forms follow the SMILES beside them. *: point of attachment. Cbz = O=C(OCc1ccccc1)*
These targets were tested with CC(C)C[C@@H](C=O)NC(=O)[C@H](CC(C)C)NC(=O)[C@H](CC(C)C)NC(=O)OCc1ccccc1 (assay: log2 fold change, soluble protein after heating vs DMSO (PISA); higher = thermal stabilisation; K562 cells, 10 uM, 30 min; active = over 0.2 and 3.5 SD of the protein, either way, in both replicates (recomputed)).
Summary of the method: (§1)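 Values are thermal stability changes relative to control samples and are taken from duplicates. They are stated as log2 fold changes. Before quantification by TMTpro 16plex LC-MS/MS with equalised channel sums, K562 cells at 2×10^6 cells/mL were treated with 10 μM compound for 30 min, heated in aliquots for 3 min across 48°C-58°C, pooled, extracted in PBS with 0.5% NP-40 at 4°C, and centrifuged at 21,000xg for 90 min to give the soluble supernatant.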
With TRIM25 (UniProt Q14258) the log2 fold change was inactive: 0.191. With TOMM34 (UniProt Q15785) the log2 fold change was inactive: 0.088. For TRIP11 (UniProt Q15643), the log2 fold change was inactive: 0.117. TRIM24 (UniProt O15164) was tested, and the log2 fold change was inactive: 0.12. For TPP2 (UniProt P29144), the log2 fold change was inactive: 0.047. In the case of TSEN34 (UniProt Q9BSV6), the log2 fold change is reported as inactive: 0.013. For TRIAP1 (UniProt O43715), the log2 fold change was inactive: -0.003. In the case of TP53RK (UniProt Q96S44), the log2 fold change is reported as inactive: -0.047. With TRIP13 (UniProt Q15645) the log2 fold change was inactive: -0.032. For TRIO (UniProt O75962), the log2 fold change was inactive: 0.158. With TSC22D2 (UniProt O75157) the log2 fold change was inactive: 0.092. With TRAPPC10 (UniProt P48553) the log2 fold change was inactive: 0.023. TRMT112 (UniProt Q9UI30) was tested, and the log2 fold change was inactive: 0.129. For TOMM70 (UniProt O94826), the log2 fold change was inactive: 0.001. For TOMM40 (UniProt O96008), the log2 fold change was inactive: -0.033. With TOP2B (UniProt Q02880) the log2 fold change was inactive: 0.274. With TNIK isoform 6 (UniProt Q9UKE5) the log2 fold change was inactive: 0.041. For TOR4A (UniProt Q9NXH8), the log2 fold change was inactive: 0.041. In the case of TOP1 (UniProt P11387), the log2 fold change is reported as inactive: 0.271. TPM4, A0A2R8Y5V9 was tested, and the log2 fold change was inactive: 0.031. TRAF6 (UniProt Q9Y4K3) was tested, and the log2 fold change was inactive: 0.055. TRRAP (UniProt Q9Y4A5) was tested, and the log2 fold change was inactive: 0.012. With TOP3B (UniProt O95985) the log2 fold change was inactive: 0.174. For TNFRSF1B (UniProt P20333), the log2 fold change was inactive: 0.08. TPT1 (UniProt P13693) was tested, and the log2 fold change was inactive: 0.025. For TRMT61B (UniProt Q9BVS5), the log2 fold change was inactive: 0.057. TOLLIP (UniProt Q9H0E2) was tested, and the log2 fold change was inactive: 0.033. With TOR1AIP2 (UniProt Q8NFQ8) the log2 fold change was inactive: 0.004. In the case of TPM3 isoform 4 (UniProt P06753), the log2 fold change is reported as inactive: -0.001. TOR3A (UniProt Q9H497) was tested, and the log2 fold change was inactive: 0.001. TOMM22 (UniProt Q9NS69) was tested, and the log2 fold change was inactive: -0.053. TSC22D4 (UniProt Q9Y3Q8) was tested, and the log2 fold change was inactive: 0.028. With TSEN15 (UniProt Q8WW01) the log2 fold change was inactive: 0.012.

The targets below were run with CC(C)N(C[C@H]1O[C@@H](n2cnc3c(N)ncnc32)[C@H](O)[C@@H]1O)[C@H]1C[C@@H](CCc2nc3cc(C(C)(C)C)ccc3[nH]2)C1 [pinometostat] in the same assay as above.
Summary of the method: as §1
In the case of TRIM25 (UniProt Q14258), the log2 fold change is reported as inactive: 0.248. For TOMM34 (UniProt Q15785), the log2 fold change was inactive: 0.063. For TRIP11 (UniProt Q15643), the log2 fold change was inactive: 0.032. In the case of TRIM24 (UniProt O15164), the log2 fold change is reported as inactive: 0.047. For TPP2 (UniProt P29144), the log2 fold change was inactive: 0.242. In the case of TSEN34 (UniProt Q9BSV6), the log2 fold change is reported as inactive: -0.029. TRIAP1 (UniProt O43715) was tested, and the log2 fold change was inactive: -0.052. TP53RK (UniProt Q96S44) was tested, and the log2 fold change was inactive: -0.025. TRIP13 (UniProt Q15645) was tested, and the log2 fold change was inactive: -0.025. With TRIO (UniProt O75962) the log2 fold change was inactive: -0.037. For TSC22D2 (UniProt O75157), the log2 fold change was inactive: -0.013. In the case of TRAPPC10 (UniProt P48553), the log2 fold change is reported as inactive: 0.087. For TRMT112 (UniProt Q9UI30), the log2 fold change was inactive: -0.023. TOMM70 (UniProt O94826) was tested, and the log2 fold change was inactive: -0.04. With TOMM40 (UniProt O96008) the log2 fold change was inactive: -0.067. For TOP2B (UniProt Q02880), the log2 fold change was inactive: 0.492. In the case of TNIK isoform 6 (UniProt Q9UKE5), the log2 fold change is reported as inactive: 0.044. With TOR4A (UniProt Q9NXH8) the log2 fold change was inactive: 0.079. TOP1 (UniProt P11387) was tested, and the log2 fold change was inactive: 0.365. For TPM4, A0A2R8Y5V9, the log2 fold change was inactive: 0.013. TRAF6 (UniProt Q9Y4K3) was tested, and the log2 fold change was inactive: 0.084. With TRRAP (UniProt Q9Y4A5) the log2 fold change was inactive: 0.009. For TOP3B (UniProt O95985), the log2 fold change was inactive: 0.202. With TNFRSF1B (UniProt P20333) the log2 fold change was inactive: 0.038. With TPT1 (UniProt P13693) the log2 fold change was inactive: -0.015. In the case of TRMT61B (UniProt Q9BVS5), the log2 fold change is reported as inactive: 0.029. In the case of TOLLIP (UniProt Q9H0E2), the log2 fold change is reported as inactive: -0.07. TOR1AIP2 (UniProt Q8NFQ8) was tested, and the log2 fold change was inactive: 0.026. For TPM3 isoform 4 (UniProt P06753), the log2 fold change was inactive: -0.024. TOR3A (UniProt Q9H497) was tested, and the log2 fold change was inactive: 0.007. For TOMM22 (UniProt Q9NS69), the log2 fold change was inactive: -0.11. For TSC22D4 (UniProt Q9Y3Q8), the log2 fold change was inactive: -0.002. In the case of TSEN15 (UniProt Q8WW01), the log2 fold change is reported as inactive: 0.054.

The targets below were run with CC1=C(C(CC(=O)N1)C2=CC=C(C=C2)C(F)(F)F)C(=O)NC3=C(C=C4C(=C3)C=NN4)F in the same assay as above.
Summary of the method: as §1
TRIM25 (UniProt Q14258) was tested, and the log2 fold change was inactive: 0.033. With TOMM34 (UniProt Q15785) the log2 fold change was inactive: 0.033. For TRIP11 (UniProt Q15643), the log2 fold change was inactive: -0.06. With TRIM24 (UniProt O15164) the log2 fold change was inactive: -0.038. For TPP2 (UniProt P29144), the log2 fold change was inactive: 0.14. In the case of TSEN34 (UniProt Q9BSV6), the log2 fold change is reported as inactive: 0.049. For TRIAP1 (UniProt O43715), the log2 fold change was inactive: 0.055. With TP53RK (UniProt Q96S44) the log2 fold change was inactive: 0.001. In the case of TRIP13 (UniProt Q15645), the log2 fold change is reported as inactive: 0.028. For TRIO (UniProt O75962), the log2 fold change was inactive: -0.041. For TSC22D2 (UniProt O75157), the log2 fold change was inactive: 0. For TRAPPC10 (UniProt P48553), the log2 fold change was inactive: 0.028. For TRMT112 (UniProt Q9UI30), the log2 fold change was inactive: 0.004. TOMM70 (UniProt O94826) was tested, and the log2 fold change was inactive: -0.03. With TOMM40 (UniProt O96008) the log2 fold change was inactive: 0.006. For TOP2B (UniProt Q02880), the log2 fold change was inactive: 0.019. For TNIK isoform 6 (UniProt Q9UKE5), the log2 fold change was inactive: 0.011. For TOR4A (UniProt Q9NXH8), the log2 fold change was inactive: -0.044. In the case of TOP1 (UniProt P11387), the log2 fold change is reported as inactive: -0.09. For TPM4, A0A2R8Y5V9, the log2 fold change was inactive: 0.028. For TRAF6 (UniProt Q9Y4K3), the log2 fold change was inactive: -0.025. With TRRAP (UniProt Q9Y4A5) the log2 fold change was inactive: 0.014. In the case of TOP3B (UniProt O95985), the log2 fold change is reported as inactive: 0.014. With TNFRSF1B (UniProt P20333) the log2 fold change was inactive: -0.013. TPT1 (UniProt P13693) was tested, and the log2 fold change was inactive: -0.012. In the case of TRMT61B (UniProt Q9BVS5), the log2 fold change is reported as inactive: 0.004. In the case of TOLLIP (UniProt Q9H0E2), the log2 fold change is reported as inactive: -0.029. In the case of TOR1AIP2 (UniProt Q8NFQ8), the log2 fold change is reported as inactive: 0.084. For TPM3 isoform 4 (UniProt P06753), the log2 fold change was inactive: 0.037. In the case of TOR3A (UniProt Q9H497), the log2 fold change is reported as inactive: 0.059. With TOMM22 (UniProt Q9NS69) the log2 fold change was inactive: 0.028. For TSC22D4 (UniProt Q9Y3Q8), the log2 fold change was inactive: 0.001. In the case of TSEN15 (UniProt Q8WW01), the log2 fold change is reported as inactive: -0.007.
